In paper PMC6423746:
Results are given in words; binding and its absence hold for the method and conditions named. Binding seen in cells or lysates may run through a third protein. Some results given as binding are weak or reduced against the parent protein; the word gives no strength.

By UniProt entry, the sequences of proteins in these tests, tags left out.
UniProt P27361: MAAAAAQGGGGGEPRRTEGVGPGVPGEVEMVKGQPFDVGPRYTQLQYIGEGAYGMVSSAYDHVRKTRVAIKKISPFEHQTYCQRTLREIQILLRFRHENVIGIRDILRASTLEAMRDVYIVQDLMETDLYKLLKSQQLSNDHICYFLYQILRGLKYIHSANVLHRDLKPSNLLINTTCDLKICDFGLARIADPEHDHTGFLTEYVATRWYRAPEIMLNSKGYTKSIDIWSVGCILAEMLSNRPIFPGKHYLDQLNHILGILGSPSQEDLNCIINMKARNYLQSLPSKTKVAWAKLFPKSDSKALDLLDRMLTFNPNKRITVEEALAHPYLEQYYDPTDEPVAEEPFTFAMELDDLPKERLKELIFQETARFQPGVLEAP
UniProt P28482: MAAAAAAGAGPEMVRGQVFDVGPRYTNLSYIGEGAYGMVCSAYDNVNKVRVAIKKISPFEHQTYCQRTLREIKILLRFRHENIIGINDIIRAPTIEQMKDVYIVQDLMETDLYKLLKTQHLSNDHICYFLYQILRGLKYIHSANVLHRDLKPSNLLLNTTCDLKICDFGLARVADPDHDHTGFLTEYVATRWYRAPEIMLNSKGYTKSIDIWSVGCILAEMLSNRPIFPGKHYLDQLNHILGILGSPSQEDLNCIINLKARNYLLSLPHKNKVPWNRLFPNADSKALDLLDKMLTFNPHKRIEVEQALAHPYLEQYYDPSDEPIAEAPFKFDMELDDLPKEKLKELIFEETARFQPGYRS

How the values were obtained:
[1] = target: T1, Mitogen-activated protein kinase phosphatase-4 (MKP-4) (human (endogenous in HCC tissue and HepG2)) (UniProt Q99956); experiment: co-IP; supernatants of HCC tissue lysates precipitated with primary antibody or control IgG and protein G Sepharose; western blot
T1 sequence: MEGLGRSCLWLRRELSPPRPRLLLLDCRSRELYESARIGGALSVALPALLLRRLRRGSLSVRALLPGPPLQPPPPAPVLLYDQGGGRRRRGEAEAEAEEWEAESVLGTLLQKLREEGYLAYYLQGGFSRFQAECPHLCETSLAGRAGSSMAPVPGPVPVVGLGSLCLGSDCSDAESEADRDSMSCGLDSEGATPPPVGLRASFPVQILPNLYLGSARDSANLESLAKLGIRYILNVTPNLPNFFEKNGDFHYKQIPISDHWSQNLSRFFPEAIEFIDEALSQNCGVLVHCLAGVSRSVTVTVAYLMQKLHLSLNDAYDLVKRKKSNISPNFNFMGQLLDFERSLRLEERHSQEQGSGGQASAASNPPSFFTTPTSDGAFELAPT

[2] = target: T1, Mitogen-activated protein kinase phosphatase-4 (MKP-4) (human (endogenous in HCC tissue and HepG2)); experiment: co-IP; HepG2 lysates immunoprecipitated with anti-MKP-4, anti-ERK1/2 antibodies or control IgG (reciprocal); western blot with anti-ERK1/2 and anti-MKP-4

binding [1] | binding [2] | Substance
binds | binds | Extracellular signal-regulated kinase 1 (ERK1) (from UniProt P27361 1-379) (enzyme)
binds | binds | Extracellular signal-regulated kinase 2 (ERK2) (from UniProt P28482 1-360) (enzyme)
